Measurements taken from article PMC2832016.
No constants are given. Whether binding was seen depends on the method and setting. Binding seen in cells or lysates may run through a third protein. Some results given as binding are weak or reduced against the parent protein; the word gives no strength. Tags and fused reporters may be left off the sequences shown.

T1: GST-tagged full-length Scyl1 (Scy1-like 1) (UniProt Q9EQC5)
T1 sequence: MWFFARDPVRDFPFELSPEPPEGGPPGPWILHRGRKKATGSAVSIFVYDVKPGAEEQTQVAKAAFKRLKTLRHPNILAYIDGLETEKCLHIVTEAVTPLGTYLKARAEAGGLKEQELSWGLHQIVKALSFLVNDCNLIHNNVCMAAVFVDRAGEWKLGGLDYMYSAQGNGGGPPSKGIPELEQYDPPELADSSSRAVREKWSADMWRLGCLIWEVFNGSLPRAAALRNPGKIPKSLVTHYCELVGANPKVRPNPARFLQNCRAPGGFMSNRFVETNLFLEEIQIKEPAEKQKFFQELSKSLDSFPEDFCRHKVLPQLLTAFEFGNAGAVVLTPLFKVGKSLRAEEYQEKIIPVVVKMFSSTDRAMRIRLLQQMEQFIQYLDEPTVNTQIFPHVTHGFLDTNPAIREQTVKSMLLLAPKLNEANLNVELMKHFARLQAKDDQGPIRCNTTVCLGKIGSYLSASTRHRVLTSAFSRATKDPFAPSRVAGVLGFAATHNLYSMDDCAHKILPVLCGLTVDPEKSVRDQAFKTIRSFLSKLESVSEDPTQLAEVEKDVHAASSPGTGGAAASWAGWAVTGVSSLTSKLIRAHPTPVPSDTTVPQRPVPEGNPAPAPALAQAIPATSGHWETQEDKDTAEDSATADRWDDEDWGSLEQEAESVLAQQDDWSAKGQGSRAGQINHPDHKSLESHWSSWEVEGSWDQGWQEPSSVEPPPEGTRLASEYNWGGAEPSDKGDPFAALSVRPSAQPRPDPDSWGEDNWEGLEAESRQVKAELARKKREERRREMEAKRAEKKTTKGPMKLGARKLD


Target: T1, GST-tagged full-length Scyl1 (Scy1-like 1)
Assay: pull-down; GST-Scyl1 fusion proteins pre-coupled to glutathione-Sepharose beads, incubated 3 h at 4°C with 1 ml rat liver extract (1 mg/ml; 10 mM HEPES pH 7.4, 1% Triton X-100, 50 mM NaCl); washed 3 times; Western blot; only the target purified

binding | Binder
binds | βCOP (protein, UniProt P23514 1-953) MTAAENVCYTLINVPMDSEPPSEISLKNDLEKGDVKSKTEALKKVIIMILNGEKLPGLLMTIIRFVLPLQDHTIKKLLLVFWEIVPKTTPDGRLLHEMILVCDAYRKDLQHPNEFIRGSTLRFLCKLKEAELLEPLMPAIRACLEHRHSYVRRNAVLAIYTIYRNFENLIPDAPELIHDFLVNEKDASCKRNAFMMLIHADQDRALDYLSTCIDQVQTFGDILQLVIVELIYKVCHANPSERARFIRCIYNLLQSSSPAVKYEAAGTLVTLSSAPTAIKAAAQCYIDLIIKESDNNVKLIVLDRLVELKEHPAHERVLQDLVMDILRVLSTPDLEVRKKTLQLALDLVSSRNVEELVIVLKKEVIKTNNVSEHEDTDKYRQLLVRTLHSCSVRFPDMAANVIPVLMEFLSDSNEAAAADVLEFVREAIQRFDNLRMLIVEKMLEVFHAIKSVKIYRGALWILGEYCSTKEDIQSVMTEVRRSLGEIPIVESEIKKEAGELKPEEEITVGPVQKLVTEMGTYATQSALSSSRPTKKEEDRPPLRGFLLDGDFFVAASLATTLTKIALRYVALVQEKKKQNSFVAEAMLLMATILHLGKSSLPKKPITDDDVDRISLCLKVLSECSPLMNDIFNKECRQSLSQMLSAKLEEEKLSQKKESEKRNVTVQPDDPISFMQLTAKNEMNCKEDQFQLSLLAAMGNTQRKEAADPLASKLNKVTQLTGFSDPVYAEAYVHVNQYDIVLDVLVVNQTSDTLQNCTLELATLGDLKLVEKPSPLTLAPHDFANIKANVKVASTENGIIFGNIVYDVSGAASDRNCVVLSDIHIDIMDYIQPATCTDAEFRQMWAEFEWENKVTVNTNVTDLNDYLQHILKSTNMKCLTPEKALSGYCGFMAANLYARSIFGEDALANVSIEKPVHQGPDAAVTGHIRIRAKSQGMALSLGDKINLSQKKTSL
binds | 58K/formiminotransferase cyclodeaminase (FTCD) (protein, UniProt O88618 1-541) MSQLVECVPNFSEGNNQEVIDAISQAISQTPGCVLLDVDAGPSTNRTVYTFVGQPECVVEGALSAARTASQLIDMRKHKGEHPRMGALDVCPFIPVRGVSMDECVLCAKAFGQRLAEELNVPVYLYGEAAQMPSRQTLPAIRAGEYEALPEKLKQAEWVPDFGPSSFVPSWGATVTGARKFLIAFNINLLSTKEQAHRIALNLREQGRGKDQPGRLKKVQGIGWYLEEKNLAQVSTNLLDFEVTALHTVYEEARREAQELNLPVVGSQLVGLVPLKALLDAAAFYCDKEKLFVLEEEHRIRLVVNRLGLDSLAPFDPKERIIEYLVPDSGPEQSLLDASLRAFVREVGARSAAPGGGSVAAAVAALGAALASMVGQMTYGRRQFDHLDSTMRRLIPPFHAASAQLTSLVDADARAFAACLGAIKLPKNTPEERDRRTCALQEGLRQAVAVPLKLAETVSQLWPALQELAQCGNLSCLSDLQVAAKALETGVFGAYFNVLINLKDMTDDVFKEKTRHRISSLLQEAKTQAALVLGSLEARKE
